{"source": "PubChem BioAssay AID540303", "about": "(National Center for Advancing Translational Sciences (NCATS), 2011)", "note": "Among all 330,000 compounds or so, about 1,000 (0.3%) were called active. Inconclusive means that the source gave no clear call. Such entries were picked first, then a sample of the others. The call rests on the fitted dose curve; in most records, active means well fitted inhibition curve with a large enough effect; inconclusive means small, poorly fitted or top-dose-only effect; inactive means no such curve, though single readings can be large or run the other way; tested in mouse RAW 264.7 cells. Potencies of inconclusive entries are doubtful fits and often do not repeat. On the % scale 0 is the no-effect control and ±100 the full control effect; potency means the concentration at half of the fitted maximal effect.", "data": [{"experiment": "qHTS for Inhibitors of Cell Surface uPA Generation; further: nearly all actives have a fitted effect of over 55% in size", "settings": "cell surface uPA generation assay; series mostly up to 38.3 µM; activity change, negative = inhibition: at the top concentration", "in_short": "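RAW 264.7 cells (4000/well) were plated overnight at 37 C and then given compounds in a 1:5 series (up to 38.3 uM final) plus reagent for 24 h. Intracellular ATP was measured by ATP-Lite luminescence and stays elevated when uPA-dependent LF entry is blocked.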", "values": [{"smiles": "CCOC(=O)c1c(N2C(=O)CC(Sc3ccccc3C(=O)O)C2=O)sc2c1CCCC2", "note": "(stereo unspecified)", "activity change, negative = inhibition": "inactive: -4.63%"}, {"smiles": "COc1ccc(CCN2C(=O)CC(NNc3ccc([N+](=O)[O-])cc3)C2=O)cc1OC", "note": "(stereo unspecified)", "activity change, negative = inhibition": "inactive: 5.17%"}, {"smiles": "COc1cccc(N2CCN(C(=O)c3ccc(CS(=O)c4ccc(Cl)cc4)o3)CC2)c1", "note": "(stereo unspecified)", "Potency": "inconclusive: 0.251 µM [inhibitor, full curve, poor fit]"}, {"smiles": "O=C1[C@@H](Oc2ccccc2)[C@@H](c2cnc3ccccc3c2)N1c1ccccc1", "Potency": "inconclusive: 15.8 µM [inhibitor, partial curve, poor fit]"}, {"smiles": "CC(C)CCN(C(=O)C1CCCC1)c1c(N)n(Cc2ccccc2)c(=O)[nH]c1=O", "activity change, negative = inhibition": "inactive: 10.2%"}, {"smiles": "Cc1ccsc1C(=O)Nc1ccc(F)c([N+](=O)[O-])c1", "Potency": "inconclusive: 10 µM [inhibitor, partial curve, poor fit]"}, {"smiles": "N#Cc1ccsc1NC(=O)CCS(=O)(=O)c1ccccc1", "Potency": "inconclusive: 2.82 µM [inhibitor, partial curve, poor fit]"}, {"smiles": "COc1ccc2oc(C(=O)Nc3nc4ccccc4[nH]3)c(C)c2c1", "Potency": "active: 3.55 µM"}, {"smiles": "C=CC1=CCN(S(=O)C(C)(C)C)[C@H]1CCO", "note": "(stereo partly specified)", "activity change, negative = inhibition": "inactive: 13.2%"}, {"smiles": "Cc1cc(N2CCN(c3ccc(C(F)(F)F)cc3[N+](=O)[O-])CC2)c2ccccc2n1", "Potency": "active: 14.1 µM"}, {"smiles": "COc1ccc(-c2nnc(-c3ccc(F)cc3)o2)cc1", "activity change, negative = inhibition": "inactive: -5.25%"}, {"smiles": "Cc1ccc2cc(C(c3nnnn3C3CCCC3)N(Cc3cccnc3)Cc3ccco3)c(=O)[nH]c2c1", "note": "(stereo unspecified)", "Potency": "inconclusive: 12.6 µM [inhibitor, partial curve, poor fit]"}, {"smiles": "CCOc1ccccc1O[C@H](c1ccccc1)[C@H]1CNCCO1", "Potency": "inconclusive: 6.31 µM [inhibitor, single point]"}, {"smiles": "C(=NN=C1c2ccccc2-c2ccccc21)c1c[nH]c2ccccc12", "activity change, negative = inhibition": "inactive: -0.396%"}, {"smiles": "CN(CC(=O)Nc1ccccc1Br)C(=O)CCC1CCCC1", "Potency": "inconclusive: 1 µM [inhibitor, single point]"}, {"smiles": "COc1ccc(C(=O)/C=C/Nc2ccccn2)cc1", "Potency": "inconclusive: 1 µM [inhibitor, full curve]"}, {"smiles": "CCOC(=O)c1oc2ccccc2c1NC(=O)c1cccc(OC)c1OC", "Potency": "inconclusive: 5.01 µM [inhibitor, partial curve]"}, {"smiles": "COc1cccc(C(C)NC(=O)Nc2ccccc2Cl)c1", "note": "(stereo unspecified)", "activity change, negative = inhibition": "inactive: -8.83%"}, {"smiles": "CCOC(=O)CCc1ccc(NC(=O)/C=C/c2ccc([N+](=O)[O-])o2)cc1", "activity change, negative = inhibition": "inactive: -5.53%"}, {"smiles": "CCOC(=O)CN1C(=O)S/C(=C\\c2ccc(-c3ccc(C(=O)O)c(Cl)c3)o2)C1=O", "activity change, negative = inhibition": "inactive: 3.88%"}, {"smiles": "CCC(CC)c1nnc(NC(=O)C23CC4CC(CC(NC(C)=O)(C4)C2)C3)s1", "activity change, negative = inhibition": "inactive: 8.54%"}, {"smiles": "CCOc1ccc2nc(SCC(=O)Nc3ccc4[nH]c(=O)[nH]c4c3)[nH]c2c1", "activity change, negative = inhibition": "inactive: -0.968%"}, {"smiles": "O=C(COC(=O)C1C2CC3OC(=O)C1C3C2)Nc1ccc(Br)cc1", "note": "(stereo unspecified)", "activity change, negative = inhibition": "inactive: -0.939%"}, {"smiles": "O=C(Nc1ccc(Br)cc1)c1ccccc1Br", "Potency": "inconclusive: 14.1 µM [inhibitor, partial curve, poor fit]"}, {"smiles": "O=C(O)CCNC(=O)c1cncc(Br)c1", "Potency": "inconclusive: 2.82 µM [inhibitor, single point]"}, {"smiles": "COCCNC(=O)CN(C(=O)c1ccc(N2CCCC2)nc1)c1ccccc1", "activity change, negative = inhibition": "inactive: 7.49%"}, {"smiles": "COCCNC(=O)C(c1cccs1)N(C(=O)Cn1nnc2ccccc21)c1ccccc1", "note": "(stereo unspecified)", "activity change, negative = inhibition": "inactive: -1.2%"}, {"smiles": "N#Cc1ccc2ccn(CC(=O)NCc3ccccc3)c2c1", "Potency": "inconclusive: 10 µM [inhibitor, single point]"}, {"smiles": "O=C(Nc1nc(-c2ccccn2)cs1)c1ccc(Cl)s1", "Potency": "inconclusive: 2 µM [inhibitor, full curve, poor fit]"}, {"smiles": "O=C(Cc1ccc([N+](=O)[O-])cc1)N/N=C/c1ccc([N+](=O)[O-])o1", "Potency": "inconclusive: 20 µM [inhibitor, single point]"}, {"smiles": "COc1ccc(/C=C/C(=O)NC(=S)NNC(=O)c2cnccn2)cc1", "Potency": "inconclusive: 5.01 µM [inhibitor, full curve]"}, {"smiles": "Cc1ccc(S(C)(=O)=NS(=O)(=O)c2cccc3nsnc23)cc1", "note": "(stereo unspecified)", "activity change, negative = inhibition": "inactive: 7.12%"}, {"smiles": "COC(=O)[C@]1(Cc2ccccc2)N[C@H](c2ccc(-c3cccc(Cl)c3)c(OC)c2)[C@@H]2C(=O)N(C)C(=O)[C@@H]21", "Potency": "inconclusive: 5.01 µM [inhibitor, partial curve]"}, {"smiles": "CCOC(=O)C1Nc2ccc(C)cc2C2C=CCC12", "note": "(stereo unspecified)", "Potency": "inconclusive: 2.24 µM [inhibitor, partial curve, poor fit]"}, {"smiles": "CCN(CC)CCNc1nc(-c2ccc(OC(F)F)cc2)c(C)s1", "Potency": "inconclusive: 3.16 µM [inhibitor, partial curve, poor fit]"}, {"smiles": "COc1cccc(Cn2nnc(C(=O)Nc3cc(C)ccc3OC)c2N)c1", "Potency": "inconclusive: 3.16 µM [inhibitor, partial curve, poor fit]"}, {"smiles": "COc1cc(OC)cc(C(=O)Nc2nc(CC(=O)NCc3ccc(F)cc3)cs2)c1", "Potency": "inconclusive: 10 µM [inhibitor, single point]"}, {"smiles": "Cc1ccc(S(=O)(=O)/N=C(\\N)Nc2nc(C)c3ccc(C)cc3n2)cc1", "Potency": "inconclusive: 11.2 µM [inhibitor, partial curve, poor fit]"}, {"smiles": "Cc1[nH]n2c(=O)cc(C(C)(C)C)nc2c1-c1ccccc1", "activity change, negative = inhibition": "inactive: -12.7%"}, {"smiles": "O=C(COc1ccc(F)cc1)N/N=C/c1cccc2cccnc12", "Potency": "inconclusive: 14.1 µM [inhibitor, single point]"}, {"smiles": "CC1CC(C)CN(CCCCOc2ccc([N+](=O)[O-])cc2)C1", "note": "(stereo unspecified)", "activity change, negative = inhibition": "inactive: -0.0631%"}, {"smiles": "Cc1ccc(SC(CC(=O)c2ccc(C)cc2)C(=O)O)cc1", "note": "(stereo unspecified)", "activity change, negative = inhibition": "inactive: -7.63%"}, {"smiles": "Cc1nc(NC(=O)C2CC2)sc1C(=O)Nc1ccccc1Cl", "Potency": "inconclusive: 12.6 µM [inhibitor, single point]"}, {"smiles": "CCOC(=O)c1sc2nc(C)nc(NCc3ccccc3)c2c1C", "activity change, negative = inhibition": "inactive: 8.5%"}, {"smiles": "Clc1cccc(Cl)c1OCCOCCNCc1ccccc1", "Potency": "inconclusive: 10 µM [inhibitor, partial curve, poor fit]"}, {"smiles": "COc1cc(C(=O)/C=C/c2cccnc2)c([N+](=O)[O-])cc1OC", "Potency": "active: 8.91 µM"}, {"smiles": "COc1ccc(C)cc1S(=O)(=O)Nc1cccc(-c2ccc(N3CCCCCC3)nn2)c1", "Potency": "inconclusive: 11.2 µM [inhibitor, partial curve, poor fit]"}, {"smiles": "O=C(N/N=C/c1c[nH]c2ccccc12)c1ccccc1", "Potency": "inconclusive: 15.8 µM [inhibitor, partial curve, poor fit]"}, {"smiles": "Oc1ccc(N=Cc2ccc(OCc3ccccc3)cc2)cc1", "Potency": "inconclusive: 12.6 µM [inhibitor, partial curve, poor fit]"}, {"smiles": "CCOc1nc2ccccc2nc1NS(=O)(=O)c1ccc(Cl)cc1", "activity change, negative = inhibition": "inactive: 4.4%"}, {"smiles": "NCCCn1c(C(=O)c2ccc(Cl)cc2)c2ccc([N+](=O)[O-])cc2[n+]1[O-]", "Potency": "inconclusive: 1.26 µM [inhibitor, full curve, poor fit]"}, {"smiles": "Cc1cc(N2CCN(C(=O)c3ccco3)CC2)c2ccccc2n1", "Potency": "inconclusive: 12.6 µM [inhibitor, single point]"}, {"smiles": "CC1Sc2ccc(S(=O)(=O)N3CCC(C(=O)Nc4ccc(Cl)cc4)CC3)cc2NC1=O", "note": "(stereo unspecified)", "Potency": "inconclusive: 10 µM [inhibitor, single point]"}, {"smiles": "O=C(NC(=S)N(CCO)Cc1ccccc1)c1ccc(S(=O)(=O)N2CCCC2)cc1", "activity change, negative = inhibition": "inactive: -3.8%"}, {"smiles": "COc1ccccc1N(C)S(=O)(=O)c1ccc(C(=O)OCC(=O)Nc2cc(C)on2)cc1", "activity change, negative = inhibition": "inactive: 8.37%"}, {"smiles": "CCC1CCC2(CC1)NC(=O)N(CC(=O)Nc1cccc(S(=O)(=O)N(C)c3ccccc3)c1)C2=O", "note": "(stereo unspecified)", "Potency": "inconclusive: 0.0126 µM [inhibitor, full curve, poor fit]"}, {"smiles": "Cc1nc(-c2ccc(F)cc2)c(CC(=O)N(C)CC(=O)Nc2ccc(Cl)c(C(F)(F)F)c2)s1", "activity change, negative = inhibition": "inactive: -20%"}, {"smiles": "COc1ccc(C2=Nn3c(nnc3-c3ccccc3F)SC2)cc1OC1CCCC1", "Potency": "inconclusive: 12.6 µM [inhibitor, partial curve, poor fit]"}, {"smiles": "CC(=O)Nc1ncc(Cc2cc(Cl)ccc2Cl)s1", "Potency": "inconclusive: 11.2 µM [inhibitor, single point]"}, {"smiles": "CCCCn1c(O)c(/C=C/C=C/C=Nc2ccccc2)sc1=S", "activity change, negative = inhibition": "inactive: 1.41%"}, {"smiles": "CC(=O)Cc1nsc(NC(=O)c2ccc(-c3cccc(Cl)c3)o2)n1", "Potency": "inconclusive: 11.2 µM [inhibitor, single point]"}, {"smiles": "O=C(NCc1ccccc1)c1ccc(-c2ccccc2C(F)(F)F)o1", "activity change, negative = inhibition": "inactive: 11.4%"}, {"smiles": "CS(=O)(=O)N1CCN(C(=O)Cc2ccc(Br)cc2)CC1", "Potency": "inconclusive: 1 µM [inhibitor, partial curve, poor fit]"}, {"smiles": "CCOc1ccc(C(=O)O/N=C(\\N)c2ccccn2)cc1", "Potency": "inconclusive: 14.1 µM [inhibitor, partial curve, poor fit]"}, {"smiles": "O=C(c1cc(COc2ccc(F)cc2Cl)on1)N1CCSCC1", "activity change, negative = inhibition": "inactive: -3.01%"}, {"smiles": "O=[N+]([O-])c1cccc(-c2nnc(SCc3cccnc3)o2)c1", "Potency": "inconclusive: 10 µM [inhibitor, partial curve, poor fit]"}, {"smiles": "O=C(Nc1nnc(Cc2ccc(Cl)cc2)s1)c1ccco1", "activity change, negative = inhibition": "inactive: -10.1%"}, {"smiles": "Cc1ccc(-c2csc(N(CCO)CCCn3c(C(F)(F)F)nc4cc(C(F)(F)F)ccc43)n2)cc1", "activity change, negative = inhibition": "inactive: 10.1%"}, {"smiles": "COC(=O)c1cc(=O)n(Cc2ccc3c(c2)OCO3)c(=Nc2ccc(F)cc2)s1", "Potency": "inconclusive: 2.82 µM [inhibitor, partial curve]"}, {"smiles": "Cc1cc(NC(=O)c2cc3cccc([N+](=O)[O-])c3[nH]2)ccc1F", "Potency": "inconclusive: 28.2 µM [inhibitor, single point]"}, {"smiles": "CCN(CC)S(=O)(=O)c1cc(C(=O)Nc2cc(C)[nH]n2)ccc1Cl", "Potency": "inconclusive: 1.58 µM [inhibitor, full curve, poor fit]"}]}]}
